Test: general procedure: solution-phase peptide synthesis; HATU/diisopropylethylamine; PyBOP/diisopropylethylamine
Conditions: trifluoroacetate salt

Substance | step yield (late stage modification step) [% yield] | step yield (coupling step) [% yield]
Methyl 5-((14-amino-4,7,10,13-tetraoxo-3,6,9,12-tetraazatetradecyl)carbamoyl)-2-(2-(4-fluorophenyl)butanamido)-4-methylthiophene-3-carboxylate | 93 | –
Methyl 5-(((5S,8S,11S,14S)-14-amino-5,8,11-triisopropyl-15-methyl-4,7,10,13-tetraoxo-3,6,9,12-tetraazahexadecyl)carbamoyl)-2-(2-(4-fluorophenyl)butanamido)-4-methylthiophene-3-carboxylate | – | 10
Methyl 5-((2,2-dimethyl-4,7,10,13,16-pentaoxo-3-oxa-5,8,11,14,17-pentaazanonadecan-19-yl)carbamoyl)-2-(2-(4-fluorophenyl)butanamido)-4-methylthiophene-3-carboxylate | – | 50

— patent US20250332276A1 (priority 2022, published 2025)
